Values of other authors as cited in patent US20210301349A1, “COMPOSITIONS AND METHODS FOR TREATING A TUMOR SUPPRESSOR DEFICIENT CANCER” (BETH ISRAEL DEACONESS MEDICAL CENTER, INC., priority 2016, published 2021).
At least one structure is not confirmed: it was looked up by name or label, or the drawing left a doubt.

How the values were obtained:
[1] = system: Pten^pc−/−; p53^pc−/− mouse model; settings: cited from earlier work
[2] = system: mouse model combining genetic loss of Pten, p53 and Smad4; settings: cited from earlier work

COc1cc2nccc(Oc3ccc(NC(=O)C4(C(=O)Nc5ccc(F)cc5)CC4)cc3)c2cc1OC [Cabozantinib]
anticancer response ([1]; p53^pc−/− mouse model (Patnaik et al.)): efficacy | recruitment of PMN cells ([1]; p53^pc−/− mouse model, post-treatment (Patnaik et al.)): massive post-treatment recruitment of PMN cells | number of intra-tumoral PMN cells ([2]; p53 and Smad4 loss mouse model (Lu et al.)): reduces the number of intra-tumoral PMN cells | anti-tumor efficacy of immune checkpoint blockade ([2]; p53 and Smad4 loss mouse model, combination (Lu et al.)): greatly enhanced the anti-tumor efficacy of immune checkpoint blockade
